# No constants are given. Whether binding was seen depends on the method and setting. Some results given as binding are weak or reduced against the parent protein; the word gives no strength. Tags and fused reporters may be left off the sequences shown.
# T1: recombinant Mycobacterium tuberculosis rABC (Mycobacterium tuberculosis H37Rv) (UniProt P9WQK3)
# T1 sequence: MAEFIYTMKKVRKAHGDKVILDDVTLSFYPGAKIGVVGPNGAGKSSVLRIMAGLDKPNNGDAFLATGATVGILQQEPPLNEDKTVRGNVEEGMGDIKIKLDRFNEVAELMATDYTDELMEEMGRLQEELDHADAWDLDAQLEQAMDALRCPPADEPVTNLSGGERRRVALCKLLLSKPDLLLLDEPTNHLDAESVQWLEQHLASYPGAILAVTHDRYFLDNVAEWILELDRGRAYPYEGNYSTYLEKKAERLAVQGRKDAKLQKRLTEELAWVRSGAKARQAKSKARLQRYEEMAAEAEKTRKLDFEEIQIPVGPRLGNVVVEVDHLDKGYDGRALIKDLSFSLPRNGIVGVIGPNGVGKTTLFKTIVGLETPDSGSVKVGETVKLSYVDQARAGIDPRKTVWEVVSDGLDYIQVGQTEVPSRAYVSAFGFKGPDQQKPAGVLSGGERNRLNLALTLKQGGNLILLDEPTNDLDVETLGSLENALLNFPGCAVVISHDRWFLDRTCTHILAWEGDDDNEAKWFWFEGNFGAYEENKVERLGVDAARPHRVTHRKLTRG
# B1: biotin-labeled recombinant human SAA1 (natural protein, UniProt P0DJI8 19-122, looked up)
# chain: RSFFSFLGEAFDGARDMWRAYSDMREANYIGSDKYFHARGNYDAAKRGPGGAWAAEVITDARENIQRFFGHGAEDSLADQAANEWGRSGKDPNHFRPAGLPEKY
# modifications: biotin (Sulfo-NHS-biotin labeling; sites not stated)
# notes: serum amyloid A1 (SAA1), human, recombinant, bought from Sigma Aldrich; Same bought protein as m1, biotinylated; detected with streptavidin-HRP; also called biotinylated SAA1; biotin-labeled human SAA1; source: bought: Sigma Aldrich (recombinant), labeled with EZ-Link Micro Sulfo-NHS-Biotinylation Kit
# Molecular target: T1, recombinant Mycobacterium tuberculosis rABC (Mycobacterium tuberculosis H37Rv)
# Experiment: far-Western, overlay or dot blot; recombinant Mtb proteins separated by reducing SDS-PAGE (12% gel), transferred to nitrocellulose, incubated 2 h at room temperature with biotin-labeled SAA1 at 10 µg/mL in PBS/0.05% Tween 20/0.1% BSA; streptavidin-peroxidase detection; both purified
binder,measurement,value
B1,binding,binds

# Source: article PMC8160739, “Mycobacterium tuberculosis Binds Human Serum Amyloid A, and the Interaction Modulates the Colonization of Human Macrophages and the Transcriptional Response of the Pathogen” (Cells, 2021)
